One assay has as its target hMap7-V5His6 (human) (UniProt Q14244). Nature of the assay: co-IP; lysates of HeLa cells co-expressing V5His6-tagged Map7 proteins with hKif5b-EGFP, 1×NP40 buffer; immunoprecipitated with anti-V5 antibody, probed with anti-GFP and anti-V5.
A further assay concerns the target rMap7D2-V5His6 (rat) (UniProt D4A4L4). Described as above.

Sequences of proteins named here, by UniProt entry; tags and fusion partners are left off.
UniProt Q14244: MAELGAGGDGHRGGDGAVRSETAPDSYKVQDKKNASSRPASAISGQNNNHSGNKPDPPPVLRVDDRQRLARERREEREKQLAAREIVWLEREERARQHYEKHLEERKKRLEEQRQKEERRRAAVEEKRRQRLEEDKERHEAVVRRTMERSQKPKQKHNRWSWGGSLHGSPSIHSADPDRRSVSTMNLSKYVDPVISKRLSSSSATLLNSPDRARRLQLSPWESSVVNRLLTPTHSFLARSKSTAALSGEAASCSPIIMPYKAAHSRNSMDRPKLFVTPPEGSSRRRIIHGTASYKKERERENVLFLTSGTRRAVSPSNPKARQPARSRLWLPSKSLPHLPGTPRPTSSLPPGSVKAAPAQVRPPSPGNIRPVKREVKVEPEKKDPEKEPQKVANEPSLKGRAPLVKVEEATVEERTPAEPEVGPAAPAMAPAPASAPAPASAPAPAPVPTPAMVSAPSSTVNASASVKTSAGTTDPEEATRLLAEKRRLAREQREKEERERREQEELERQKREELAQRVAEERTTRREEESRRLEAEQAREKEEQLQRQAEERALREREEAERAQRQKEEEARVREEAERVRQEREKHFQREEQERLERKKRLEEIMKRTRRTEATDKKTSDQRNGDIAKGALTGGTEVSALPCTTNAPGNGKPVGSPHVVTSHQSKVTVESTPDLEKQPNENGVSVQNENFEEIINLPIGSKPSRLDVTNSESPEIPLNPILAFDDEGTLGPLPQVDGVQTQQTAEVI
UniProt D4A4L4: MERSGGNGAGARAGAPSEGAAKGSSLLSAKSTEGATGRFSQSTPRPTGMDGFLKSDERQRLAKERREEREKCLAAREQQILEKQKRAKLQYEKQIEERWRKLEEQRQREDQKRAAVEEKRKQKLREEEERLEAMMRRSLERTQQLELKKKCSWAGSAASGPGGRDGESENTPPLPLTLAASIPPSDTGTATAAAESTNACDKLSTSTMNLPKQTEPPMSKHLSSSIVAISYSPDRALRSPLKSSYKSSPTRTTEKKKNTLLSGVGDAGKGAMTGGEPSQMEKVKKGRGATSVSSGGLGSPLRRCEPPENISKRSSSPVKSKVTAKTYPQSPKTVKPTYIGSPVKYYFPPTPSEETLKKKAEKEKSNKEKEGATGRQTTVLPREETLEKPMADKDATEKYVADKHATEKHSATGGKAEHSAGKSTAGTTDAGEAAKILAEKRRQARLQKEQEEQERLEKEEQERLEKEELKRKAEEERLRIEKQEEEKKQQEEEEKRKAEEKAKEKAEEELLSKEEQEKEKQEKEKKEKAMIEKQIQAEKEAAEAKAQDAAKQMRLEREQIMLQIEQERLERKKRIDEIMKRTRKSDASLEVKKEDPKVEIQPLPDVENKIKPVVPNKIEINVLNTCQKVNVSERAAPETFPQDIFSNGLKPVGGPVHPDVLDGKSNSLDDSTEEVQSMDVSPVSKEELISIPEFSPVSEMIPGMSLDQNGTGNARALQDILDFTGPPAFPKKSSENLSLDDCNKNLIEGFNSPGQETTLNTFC
UniProt P33176: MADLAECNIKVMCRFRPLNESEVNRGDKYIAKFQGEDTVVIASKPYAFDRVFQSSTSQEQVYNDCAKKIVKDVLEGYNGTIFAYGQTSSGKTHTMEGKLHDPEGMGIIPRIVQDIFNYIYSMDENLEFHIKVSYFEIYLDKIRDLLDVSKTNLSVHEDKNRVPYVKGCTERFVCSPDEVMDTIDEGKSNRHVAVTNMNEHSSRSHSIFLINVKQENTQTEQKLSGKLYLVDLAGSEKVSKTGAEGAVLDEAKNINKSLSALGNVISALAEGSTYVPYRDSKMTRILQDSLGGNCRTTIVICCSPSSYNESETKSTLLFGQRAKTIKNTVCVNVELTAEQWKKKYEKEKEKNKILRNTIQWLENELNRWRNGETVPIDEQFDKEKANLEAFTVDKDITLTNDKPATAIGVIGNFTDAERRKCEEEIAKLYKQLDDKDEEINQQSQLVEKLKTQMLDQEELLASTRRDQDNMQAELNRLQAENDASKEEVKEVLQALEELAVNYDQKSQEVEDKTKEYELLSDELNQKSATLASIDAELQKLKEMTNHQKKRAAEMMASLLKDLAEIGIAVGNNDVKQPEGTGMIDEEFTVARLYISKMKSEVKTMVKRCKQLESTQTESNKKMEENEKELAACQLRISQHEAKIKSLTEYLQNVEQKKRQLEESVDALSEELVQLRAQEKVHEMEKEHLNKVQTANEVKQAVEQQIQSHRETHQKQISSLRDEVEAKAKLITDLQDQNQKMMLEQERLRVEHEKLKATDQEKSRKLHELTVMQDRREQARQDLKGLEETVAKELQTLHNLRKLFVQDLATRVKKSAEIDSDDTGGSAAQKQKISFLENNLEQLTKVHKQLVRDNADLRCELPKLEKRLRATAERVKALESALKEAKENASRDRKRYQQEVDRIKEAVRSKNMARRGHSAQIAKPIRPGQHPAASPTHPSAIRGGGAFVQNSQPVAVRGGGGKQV

1 substance from PMC9039348 can be followed below.

No constants are given. Whether binding was seen depends on the method and setting. In cells and extracts the contact can be indirect. Some entries that bind do so weakly or less than the wild type.

As for hKif5b-EGFP (from UniProt P33176 1-963), the binding result with hMap7-V5His6 (human) and in the assay with rMap7D2-V5His6 (rat) was “binds” in each case.
